# Measurements taken from PubChem BioAssay AID504467 (National Center for Advancing Translational Sciences (NCATS), 2011).
# Out of some 330,000 compounds screened, about 7,700 (2.3%) were called active. Inconclusive results, whose numbers are uncertain, are shown with a selection of clear calls. Calls come from the whole dose curve; as a rule, active = well fitted inhibition curve with a large enough effect; inconclusive = small, poorly fitted or top-dose-only effect, or effect the other way; inactive = flat fitted curve, though single readings scatter. Potencies of inconclusive entries are doubtful fits and often do not repeat.
# Assay: qHTS screen for small molecules that inhibit ELG1-dependent DNA repair in human embryonic kidney (HEK293T) cells expressing luciferase-tagged ELG1; note: nearly all actives have a fitted effect of over 55% in size
# Details: HEK293T ELG1-luciferase reporter, luminescence, 16 h, DNA damage induced by 5-fluorouridine; series mostly up to 46.1 µM
# Outline: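 5-Fluorouridine DNA damage + compound/DMSO, 2,000 cells/well, 16 h, 37 °C/5% CO2. ONE-Glo, 30 min RT, luminescence. Readout = decrease in reporter signal.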
# Potency is the fitted concentration of half-maximal effect.
row,Structure (SMILES),Potency
1,Fc1ccccc1CSCc1nc2ccccc2[nH]1,"inconclusive: 13 µM [activator, partial curve]"
2,COc1ccnc(CSC(N)=Nc2ccc(F)cc2)c1,"inconclusive: 18.4 µM [activator, partial curve]"
3,CCOc1ccccc1NC(=O)CSc1nc2cccnc2n1C,"inconclusive: 29.1 µM [inhibitor, single point]"
4,Cc1nn(-c2ccccc2)c(N)c1N=Nc1cccnc1,"inconclusive: 14.6 µM [activator, partial curve]"
5,CCN(CC)CCn1c(=S)[nH]c2cc(Cl)ccc2c1=O,inactive
6,COc1ccc(C(=O)c2c(NC(C)=O)sc3c2CCN(C(=O)OC(C)(C)C)C3)cc1,"inconclusive: 23.1 µM [inhibitor, single point]"
7,COCCn1c(C)cc(C(=O)COC(=O)/C=C/c2ccc(OC)cc2OC)c1C,inactive
8,COc1ccc(C)cc1S(=O)(=O)N1CCN(C(=O)c2ncoc2-c2ccc(F)cc2)CC1,inactive
9,CCOc1ccc2c(c1)c(C(C)=O)c(C)n2-c1ccccc1,"inconclusive: 20.6 µM [inhibitor, single point]"
10,O=S1(=O)CCOC[C@H](c2ccccc2)N1Cc1cccc(F)c1,inactive
11,COc1ccccc1C(=O)NCCC(=O)NC1CCCCCC1,"inconclusive: 14.6 µM [activator, partial curve, poor fit]"
12,CN1CCN(c2nc(-c3ccc(Br)cc3)nnc2-c2ccccc2)CC1,"inconclusive: 29.1 µM [inhibitor, single point]"
13,C[C@H](NC(=O)[C@H](Cc1ccccc1)n1c(=O)[nH]c2ccccc2c1=O)C(=O)N1CCC(C(=O)O)CC1,inactive
14,COc1cccc(CN=C2Nc3ccccc3CS2)c1,"inconclusive: 20.6 µM [activator, partial curve]"
15,Cc1cc(C)n2nc(SCc3nnc(SCc4ccccc4C)s3)nc2n1,"inconclusive: 18.4 µM [inhibitor, partial curve]"
16,COCCCNC(=S)N1CCCN(c2nc3cc(C)c(C)cc3cc2C#N)CC1,"inconclusive: 29.1 µM [inhibitor, single point]"
17,COC(=O)CNC(=O)C(NC(=O)c1ccc(Cl)cc1)C(C)C (centres undefined),"inconclusive: 23.1 µM [inhibitor, partial curve]"
18,CC(=O)Nc1ccc(NC(=O)c2sc3nc4c(c(-c5ccc(C)cc5)c3c2N)CCC4)cc1,"inconclusive: 7.31 µM [inhibitor, partial curve, poor fit]"
19,OC1CCN(c2c3c(nc4cc(-c5cccc(F)c5)nn24)CCCC3)CC1,"inconclusive: 25.9 µM [inhibitor, partial curve]"

# Arranged by SMILES length (largest number first): 3 of the compounds above
row,Structure (SMILES),Potency
6,COc1ccc(C(=O)c2c(NC(C)=O)sc3c2CCN(C(=O)OC(C)(C)C)C3)cc1,"inconclusive: 23.1 µM [inhibitor, single point]"
16,COCCCNC(=S)N1CCCN(c2nc3cc(C)c(C)cc3cc2C#N)CC1,"inconclusive: 29.1 µM [inhibitor, single point]"
15,Cc1cc(C)n2nc(SCc3nnc(SCc4ccccc4C)s3)nc2n1,"inconclusive: 18.4 µM [inhibitor, partial curve]"
